Reference: article PMC9329959, “A Feedback Regulatory Loop Involving dTrbd/dTak1 in Controlling IMD Signaling in Drosophila Melanogaster” (Frontiers in Immunology, 2022)
These are yes or no findings as the source states them, for the method shown. Some binding calls cover weakened binding; strength is not graded here. For part of these data: Tags and fused reporters may be left off the sequences shown. Values belong to the binder of their own block, whether it stands above or below them.

Key:
[1] = target: T1, GST-tagged dTrbd^FL (Drosophila melanogaster), Q9VH90; test: pull-down; GST pull-down: purified proteins incubated with Glutathione Sepharose 4B at 4°C for 3 h, washed with PBS with 1% TritonX-100 3 times, Western blot; both purified; conditions: remark: other sources report otherwise
T1 chain: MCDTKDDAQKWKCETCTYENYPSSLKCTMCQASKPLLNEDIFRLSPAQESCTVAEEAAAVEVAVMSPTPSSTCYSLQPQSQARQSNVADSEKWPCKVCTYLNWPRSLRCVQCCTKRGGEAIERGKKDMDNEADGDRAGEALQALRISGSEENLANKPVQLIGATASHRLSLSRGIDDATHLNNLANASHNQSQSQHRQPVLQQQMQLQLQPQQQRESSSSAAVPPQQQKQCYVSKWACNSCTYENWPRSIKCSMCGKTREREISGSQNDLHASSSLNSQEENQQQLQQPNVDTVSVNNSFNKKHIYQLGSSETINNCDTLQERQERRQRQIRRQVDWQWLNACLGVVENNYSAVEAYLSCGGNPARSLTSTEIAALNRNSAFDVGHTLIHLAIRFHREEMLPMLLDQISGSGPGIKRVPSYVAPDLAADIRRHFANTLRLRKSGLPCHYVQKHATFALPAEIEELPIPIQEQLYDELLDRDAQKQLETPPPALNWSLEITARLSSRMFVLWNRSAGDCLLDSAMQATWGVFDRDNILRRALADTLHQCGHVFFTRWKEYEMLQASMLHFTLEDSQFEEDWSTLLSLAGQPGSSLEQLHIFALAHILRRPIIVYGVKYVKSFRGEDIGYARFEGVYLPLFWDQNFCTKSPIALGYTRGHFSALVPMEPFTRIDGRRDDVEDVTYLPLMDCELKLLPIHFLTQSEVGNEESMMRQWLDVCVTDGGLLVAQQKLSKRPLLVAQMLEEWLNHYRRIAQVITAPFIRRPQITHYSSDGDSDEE

[2] = target: Myc-dTrbd^FL (Drosophila melanogaster) (UniProt Q9VH90); test: SDD-AGE; lysates of transfected S2 cells (50 mM Tris-HCl pH 7.5, 150 mM NaCl, 0.5% Triton X-100, 10% glycerol); 1.5% agarose gel with 0.1% SDS; immunoblot
[3] = target: dTrbd (endogenous, fat body) (Drosophila melanogaster (endogenous in w1118 adult fat bodies)) (UniProt Q9VH90); test: SDD-AGE; fat bodies of male w1118 adults 0, 6 and 12 h after infection with E. coli (also Relish^E20 mutants); immunoblot

binding [1]: no binding
B1: His-tagged dTak1, Q9V3Q6 1-678 (enzyme)
chain: MATASLDALQAAYVDFSEITLREKVGHGSYGVVCKAVWRDKLVAVKEFFASAEQKDIEKEVKQLSRVKHPNIIALHGISSYQQATYLIMEFAEGGSLHNFLHGKVKPAYSLAHAMSWARQCAEGLAYLHAMTPKPLIHRDVKPLNLLLTNKGRNLKICDFGTVADKSTMMTNNRGSAAWMAPEVFEGSKYTEKCDIFSWAIVLWEVLSRKQPFKGIDNAYTIQWKIYKGERPPLLTTCPKRIEDLMTACWKTVPEDRPSMQYIVGVMHEIVKDYTGADKALEYTFVNQQIVTKESDGTVAAQPDSLSSQEGELSPSSTQLTPTTAANANVNAIAISKTTTSSMTENTSSTSSDITPTNSGQLDNNPLFYMVTNRWDAIPEEESNESRNDSFNLTSSAEATQRLETIRNGMILMACKPMEQLTLDVEANGFDLSPSESSSSSTNAKSDGRERLTVTDTKPVMMTTDLSNNNGGIHAHSNGLLSHANGWQARDEELQEQEHEQEIVNSLDVDVDPDEDENDGTEQSLAEILDPELQPEPPIPNDAESQLIYRDHRHMAKEYLSVDTNLYYAQDFKDKLIVQMDRTEREQKQELLRKMKDKEGLQSLYNNLQQQYASRQLAAGHHPQPHPHPHPNQLQHPHSHPPMHFLQDEGCGLLPGSVCGGSESVEEGWVVIPPHHNA

binding [2]: binds
B2: Myc-dTrbd^FL (enzyme, UniProt Q9VH90 1-778)
chain: T1 chain

binding [3]: binds
B3: dTrbd (endogenous, fat body) (enzyme, UniProt Q9VH90 1-778)
chain: T1 chain
